Data as given in patent US10813904B2, “Small molecule anticancer agents” (University of Florida Research Foundation, Incorporated, priority 2017, dated 2020).
At least one structure is not confirmed: it was looked up by name or label, or the drawing left a doubt.

Experiments:
[1] = test system: TSC2-Ang1 cells; assay: Immunoblot analysis of TSC2-Ang1 cells; format: cell-based, mouse; details: 100 nM rapamycin
[2] = test system: HCC1954 cells; assay: Immunoblot analysis of HCC1954 cells; format: cell-based; details: 24 hour; 100 nM rapamycin, 20 μM RBF3
[3] = test system: TSC2-Ang1 cells; assay: Micrographs of TSC2-Ang1 cells; format: cell-based, mouse; details: 20 μM RBF3, 100 nM rapamycin

CO[C@H]1C[C@@H]2CC[C@@H](C)[C@@](O)(O2)C(=O)C(=O)N2CCCC[C@H]2C(=O)O[C@H]([C@H](C)C[C@@H]2CC[C@@H](O)[C@H](OC)C2)CC(=O)[C@H](C)/C=C(\C)[C@@H](O)[C@@H](OC)C(=O)[C@H](C)C[C@H](C)/C=C/C=C/C=C/1C [rapamycin]
Akt phosphorylation [1]: strongly increased
RBF3-mediated Akt dephosphorylation, with rapamycin [2]: antagonized
cooperation with RBF3 on EGFR/HER2 downregulation, PARP cleavage, Akt phosphorylation [2]: did not cooperate with RBF3
cell death / proliferation [3]: continued to proliferate
